Data on one substance can be found in publication PMC9663461.

This assay deals with T1, Toll-like receptor 4 (rat (endogenous in intestinal tissue)) (UniProt Q9QX05).
T1 sequence: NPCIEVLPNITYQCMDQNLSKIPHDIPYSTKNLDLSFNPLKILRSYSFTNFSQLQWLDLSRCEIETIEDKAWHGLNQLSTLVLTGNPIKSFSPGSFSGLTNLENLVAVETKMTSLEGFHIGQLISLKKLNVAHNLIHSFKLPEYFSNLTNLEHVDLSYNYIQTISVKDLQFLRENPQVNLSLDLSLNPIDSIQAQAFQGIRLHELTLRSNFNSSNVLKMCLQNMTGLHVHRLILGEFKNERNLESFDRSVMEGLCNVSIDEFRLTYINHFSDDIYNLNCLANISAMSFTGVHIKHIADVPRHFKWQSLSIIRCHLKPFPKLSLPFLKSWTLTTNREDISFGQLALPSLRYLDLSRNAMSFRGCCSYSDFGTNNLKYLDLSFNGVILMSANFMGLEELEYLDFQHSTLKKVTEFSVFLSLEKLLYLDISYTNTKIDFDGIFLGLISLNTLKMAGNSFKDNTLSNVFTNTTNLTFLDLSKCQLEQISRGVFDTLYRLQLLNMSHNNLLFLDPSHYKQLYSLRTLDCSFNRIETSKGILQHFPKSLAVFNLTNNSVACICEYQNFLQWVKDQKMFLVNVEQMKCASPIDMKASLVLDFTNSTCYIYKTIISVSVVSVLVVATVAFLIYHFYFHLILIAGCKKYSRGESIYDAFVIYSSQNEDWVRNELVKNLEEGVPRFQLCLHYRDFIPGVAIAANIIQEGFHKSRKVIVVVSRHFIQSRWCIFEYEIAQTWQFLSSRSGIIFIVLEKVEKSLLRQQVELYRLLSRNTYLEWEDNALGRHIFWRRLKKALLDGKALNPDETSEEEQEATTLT
Description: co-IP; intestinal tissue lysates (300-500 ug) of neonatal rats (control, NEC, NEC pretreated with the MD2 inhibitor MD2-IN-1) incubated overnight at 4°C with primary TLR4 antibody, Protein A/G Sepharose beads, eluted in SDS loading buffer, western blot for MD2.

These are yes or no findings as the source states them, for the method shown. Binding seen in cells or lysates may run through a third protein. Binding calls can cover weak binding; strength is not graded here.

On to “Myeloid differentiation protein 2 (rat (endogenous in intestinal tissue))”, for which the binding result is listed as “binds”.
